# From the supplement of paper PMC10689618
# Counter-ions that a name gives are not always drawn. The list shows a part of the results. Single values are uncertain, as repeats are few or missing.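 Labelled rat cortical synaptosomes were engulfed by primary human fetal astrocytes. Engulfment equaled a red/green ratio, corrected for calcein live-cell signal and normalized to the plate median. Compounds were toxic when calcein dropped over 30%, and reduced phagocytosis when below 70% of the median above 5 µM.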
# Experiments:
# Settings in all cases: 24 h
# Human fetal astrocytes [1] = assay: loss of total cells relative to no-compound high-control median (toxicity); higher = more toxic (fewer cells)
# Human fetal astrocytes [2] = assay: as above; remark: listed apart in the source
# Human fetal astrocytes [3] = assay: synaptosome phagocytosis (pHrodo/calcein intensity ratio) relative to plate median of data wells; higher = more phagocytosis
# Human fetal astrocytes [4] = assay: as above; remark: listed apart in the source
SMILES,loss of total cells (Human fetal astrocytes [1]; 1.39 µM),loss of total cells (Human fetal astrocytes [1]; 2.78 µM),loss of total cells (Human fetal astrocytes [1]; 5.56 µM),loss of total cells (Human fetal astrocytes [1]; 11.11 µM),loss of total cells (Human fetal astrocytes [1]; 22.22 µM),loss of total cells (Human fetal astrocytes [2]; 1.39 µM),loss of total cells (Human fetal astrocytes [2]; 2.78 µM),loss of total cells (Human fetal astrocytes [2]; 5.56 µM),loss of total cells (Human fetal astrocytes [2]; 11.11 µM),loss of total cells (Human fetal astrocytes [2]; 22.22 µM),synaptosome phagocytosis (Human fetal astrocytes [3]; 1.39 µM),synaptosome phagocytosis (Human fetal astrocytes [3]; 2.78 µM),synaptosome phagocytosis (Human fetal astrocytes [3]; 5.56 µM),synaptosome phagocytosis (Human fetal astrocytes [3]; 11.11 µM),synaptosome phagocytosis (Human fetal astrocytes [3]; 22.22 µM),synaptosome phagocytosis (Human fetal astrocytes [4]; 1.39 µM),synaptosome phagocytosis (Human fetal astrocytes [4]; 2.78 µM),synaptosome phagocytosis (Human fetal astrocytes [4]; 5.56 µM),synaptosome phagocytosis (Human fetal astrocytes [4]; 11.11 µM),synaptosome phagocytosis (Human fetal astrocytes [4]; 22.22 µM)
CC(=O)Nc1nnc(S(N)(=O)=O)s1 [Acetazolamide],-28.6%,-13.5%,-15.2%,-11.2%,-10.9%,-38.2%,0.3%,3.3%,-10.9%,14.2%,100%,104%,98.6%,155%,79.1%,75.9%,96.1%,82.9%,129%,101%
CCn1cc(C(=O)O)c(=O)c2cc(F)c(N3CCNC(C)C3)c(F)c21 (stereo not given) [Lomefloxacin hydrochloride],-4.3%,-3.2%,5.2%,29.5%,-5.6%,0.8%,-1.5%,20.7%,-11.7%,18.7%,76.2%,107%,110%,117%,86.5%,67.2%,98.4%,76.9%,80.2%,107%
N=C(N)NCCCCN [Agmatine sulfate],-19.1%,-13.8%,-2.3%,-8.5%,-3.4%,-16.4%,-5.4%,-24.9%,-0.7%,5.2%,91.3%,81.8%,122%,113%,88.1%,89%,97.9%,88.5%,86.5%,83.9%
CN(C)CCOC(C)(c1ccccc1)c1ccccn1 (stereo not given) [Doxylamine succinate],1.3%,-7.7%,14%,-11.2%,-16%,3.9%,-22%,-13.9%,0.3%,-24%,105%,99.5%,93%,94.5%,81.2%,103%,92.2%,108%,113%,112%
CC(C)NCC(O)c1ccc(O)c(O)c1 (racemic) [(±)-Isoproterenol hydrochloride],23.2%,8.6%,5.2%,23.8%,16.8%,13.4%,-34.2%,-9.1%,10.1%,-13.1%,109%,146%,97.6%,96.5%,66%,92.6%,72.3%,104%,104%,101%
CCOC(=O)N1CCC(=C2c3ccc(Cl)cc3CCc3cccnc32)CC1 [Loratadine],,,,,,,,,,,106%,100%,101%,115%,85.2%,105%,79.8%,78.6%,64.1%,94%
COc1cc2nc(N3CCN(C(=O)C4CCCO4)CC3)nc(N)c2cc1OC (stereo not given) [Terazosin hydrochloride],-3.4%,5.1%,-11.2%,-29.5%,-14%,-21.8%,-42.9%,12.4%,27.2%,-0.3%,105%,91.9%,127%,123%,117%,101%,108%,70.7%,100%,95.2%
O=C(O)C1=C[C@@H](O)[C@@H](O)[C@H](O)C1,,,,,,,,,,,98.2%,90.1%,139%,111%,127%,,,,,
CC(C)NCC(O)COc1ccc(CC(N)=O)cc1 (racemic) [(±)-Atenolol],7%,-11.4%,-11.5%,-7.6%,2.6%,-34%,-0.9%,-12.9%,-23.4%,6.8%,100%,82%,78.5%,89.4%,96.9%,143%,120%,102%,96.2%,127%
CC(C)[N+](C)(CCOC(=O)C1c2ccccc2Oc2ccccc21)C(C)C [Propantheline bromide],-28.3%,-20.1%,-6.2%,-13.4%,-0.8%,-1.5%,-15.9%,-31.4%,-0.3%,23.4%,102%,107%,120%,107%,110%,90%,132%,120%,130%,121%
CC(=O)Oc1ccccc1C(=O)O [Acetylsalicylic acid],-23.5%,-19.5%,-13.4%,-15.7%,-1.9%,-7.5%,17.4%,5.1%,-21.1%,0.6%,97.9%,96.2%,98.9%,124%,107%,106%,96.6%,96.4%,92.8%,107%
O=C1c2c(O)ccc(O)c2C(=O)c2c(NCCNCCO)ccc(NCCNCCO)c21 [Mitoxantrone],-23.2%,-12.2%,3.3%,27.6%,77.6%,-6.5%,-32.5%,0%,67.9%,98.1%,14.2%,4.8%,7.2%,0%,0%,29%,14.2%,2%,0%,0%
CCN(CC)CCOC(=O)C1(C2CCCCC2)CCCCC1 [Dicyclomine hydrochloride],14.6%,-2.6%,12.3%,-7.6%,4.8%,-0.9%,-21.4%,-0.7%,4.3%,-24.6%,114%,109%,105%,73.5%,70.5%,105%,109%,107%,95.4%,106%
CC(C)NCC(O)COc1cccc2ccccc12 (racemic) [(±)-Propranolol hydrochloride],-17.5%,-5.9%,7%,-4.8%,7.5%,10.8%,2.1%,14.7%,12.5%,32.3%,30.8%,39.6%,36.9%,39.5%,20.8%,98.7%,109%,87.9%,84.2%,92.9%
O=C(O)c1cc2cc(F)ccc2[nH]1 [5-Fluoroindole-2-carboxylic acid],-4.4%,18%,9.7%,13.9%,11.7%,5.4%,0.4%,-1.4%,16.3%,20.5%,112%,95.7%,117%,139%,137%,87.8%,128%,89.7%,92.4%,104%
NCCc1ccc(O)c(O)c1 [Dopamine hydrochloride],1.3%,-4.3%,-17.3%,-8.5%,-7.2%,-8%,-25.4%,-25.1%,5.5%,-5.8%,88.2%,104%,61.9%,114%,86.1%,95.2%,127%,85%,113%,102%
CN1CCN2c3ccccc3Cc3ccccc3C2C1 (stereo not given) [Mianserin hydrochloride],-5.2%,3.2%,6.1%,12.4%,12.1%,-12%,15.3%,-21.4%,51%,6.3%,79.7%,102%,94.6%,125%,111%,118%,99.6%,131%,105%,96.2%
COC(=O)[C@H]1[C@H]2C[C@@H]3c4[nH]c5cc(OC)ccc5c4CCN3C[C@H]2C[C@@H](OC(=O)c2cc(OC)c(OC)c(OC)c2)[C@@H]1OC [Reserpine],-18.3%,-2.1%,7.8%,-9.4%,4.1%,-5%,0.3%,-10.5%,0.3%,-8.8%,89%,79.9%,113%,65.4%,59.4%,74%,85.5%,105%,85.8%,69.2%
O=C(O)CCCCCCCC(=O)O [Azelaic acid],-2.2%,-9.3%,-5.1%,4%,7.9%,-5.6%,-22%,-21.6%,-6.6%,33.1%,81.2%,127%,124%,120%,98.9%,71.9%,108%,108%,92.3%,96.7%
NCCS(=O)(=O)O [Taurine],-4.7%,1.5%,-6.7%,2.7%,-0.8%,-17.7%,-28.6%,-5%,35.7%,5.3%,107%,112%,96.8%,149%,82.4%,108%,108%,118%,77.6%,88.4%
CC1=C(CC(=O)O)c2cc(F)ccc2/C1=C\c1ccc([S+](C)[O-])cc1 (stereo not given) [Sulindac],-20.8%,-16.5%,-2.8%,-18.8%,-27.2%,5.6%,-5.8%,-6.3%,15.3%,37.4%,117%,106%,79.5%,102%,132%,88.1%,105%,112%,92.6%,116%
N=C(N)NC(=O)Cc1c(Cl)cccc1Cl [Guanfacine hydrochloride],7.9%,-41%,8.2%,-13%,9.6%,19.4%,-39.7%,25.5%,-9.5%,9.7%,123%,88%,117%,70.1%,91.6%,106%,93.1%,117%,113%,106%
COC(=O)C1=C(C)NC(C)=C(C(=O)OC)C1c1ccccc1[N+](=O)[O-] [Nifedipine],3.3%,3.2%,13.6%,19%,0.9%,30.7%,2.7%,11.7%,15.6%,29.5%,109%,113%,110%,88.4%,78.1%,100%,87.8%,73.3%,107%,87.3%
CN(C)CCC(c1ccc(Br)cc1)c1ccccn1 (racemic) [(±)-Brompheniramine maleate],6.2%,0%,-12.4%,22%,26.7%,-28.2%,25.4%,12.4%,45.6%,5.9%,49.9%,131%,93.3%,131%,114%,129%,142%,98.1%,110%,111%
CC(=O)CCCCn1c(=O)c2c(ncn2C)n(C)c1=O [Pentoxifylline],-28%,-7.7%,14.6%,5.7%,12.1%,30.1%,0%,-30.5%,32.3%,-7%,101%,87.6%,72.1%,114%,40.7%,68.6%,104%,103%,128%,109%
O=[N+]([O-])c1cccc2cn[nH]c12 [7-Nitroindazole],-17.5%,-2.3%,-3.3%,1.9%,20.6%,-13.9%,-9%,-15.4%,17.6%,9.6%,125%,115%,119%,139%,145%,77%,98.2%,108%,106%,98.9%

# One compound at a time, from the list above. Values in the order: loss of total cells (Human fetal astrocytes [1]; 1.39 µM)	loss of total cells (Human fetal astrocytes [1]; 2.78 µM)	loss of total cells (Human fetal astrocytes [1]; 5.56 µM)	loss of total cells (Human fetal astrocytes [1]; 11.11 µM)	loss of total cells (Human fetal astrocytes [1]; 22.22 µM)	loss of total cells (Human fetal astrocytes [2]; 1.39 µM)	loss of total cells (Human fetal astrocytes [2]; 2.78 µM)	loss of total cells (Human fetal astrocytes [2]; 5.56 µM)	loss of total cells (Human fetal astrocytes [2]; 11.11 µM)	loss of total cells (Human fetal astrocytes [2]; 22.22 µM)	synaptosome phagocytosis (Human fetal astrocytes [3]; 1.39 µM)	synaptosome phagocytosis (Human fetal astrocytes [3]; 2.78 µM)	synaptosome phagocytosis (Human fetal astrocytes [3]; 5.56 µM)	synaptosome phagocytosis (Human fetal astrocytes [3]; 11.11 µM)	synaptosome phagocytosis (Human fetal astrocytes [3]; 22.22 µM)	synaptosome phagocytosis (Human fetal astrocytes [4]; 1.39 µM)	synaptosome phagocytosis (Human fetal astrocytes [4]; 2.78 µM)	synaptosome phagocytosis (Human fetal astrocytes [4]; 5.56 µM)	synaptosome phagocytosis (Human fetal astrocytes [4]; 11.11 µM)	synaptosome phagocytosis (Human fetal astrocytes [4]; 22.22 µM)
# NCCS(=O)(=O)O [Taurine] is entered as -4.7%	1.5%	-6.7%	2.7%	-0.8%	-17.7%	-28.6%	-5%	35.7%	5.3%	107%	112%	96.8%	149%	82.4%	108%	108%	118%	77.6%	88.4%
# N=C(N)NCCCCN [Agmatine sulfate] is entered as -19.1%	-13.8%	-2.3%	-8.5%	-3.4%	-16.4%	-5.4%	-24.9%	-0.7%	5.2%	91.3%	81.8%	122%	113%	88.1%	89%	97.9%	88.5%	86.5%	83.9%
